For assay [1], the target named is recombinant human dynein tail complex (human). Put plainly: affinity purification with mass spectrometry; dynein tail complex (100 pmol) held on glutathione magnetic beads (by GST, C-terminally tethered) or on IgG magnetic beads (by ZZ, N-terminally tethered); 500 μl mouse brain extract (5 mg protein), no exogenous dynactin, 2.5 h at 4°C; washed in Citomix buffer; label-free quantitative proteomics against beads with GST or protein A only; only the target purified.

Assay [2] shares this target. The assay can be described thus: affinity purification with mass spectrometry; as a1, but the mouse brain extract was spiked with 50 μg purified dynactin (41.67 pmol, 48.45 nM); only the target purified.
Assay [3] shares this target. The assay can be described thus: condition: only without exogenous dynactin spiked into the extract; affinity purification with mass spectrometry; dynein tail complex (100 pmol) held on glutathione magnetic beads (by GST, C-terminally tethered) or on IgG magnetic beads (by ZZ, N-terminally tethered); 500 μl mouse brain extract (5 mg protein), no exogenous dynactin, 2.5 h at 4°C; washed in Citomix buffer; label-free quantitative proteomics against beads with GST or protein A only; only the target purified.

No constants are given. Whether binding was seen depends on the method and setting. Binding seen in cells or lysates may run through a third protein. A yes stands for co-enrichment or nearness to the bait. Other partners may have been found. A no says only that the protein was not detected with the bait.

B1: Ndel1, mouse brain (protein, UniProt Q9ERR1 1-345)
chain: MDGEDIPDFSSLKEETAYWKELSLKYKQSFQEARDELVEFQEGSRELEAELEAQLVQAEQRNRDLQADNQRLKYEVEALKEKLEHQYAQSYKQVSVLEDDLSQTRAIKEQLHKYVRELEQANDDLERAKRATIVSLEDFEQRLNQAIERNAFLESELDEKESLLVSVQRLKDEARDLRQELAVRERQQEVTRKSAPSSPTLDCEKMDSAVQASLSLPATPVGKGTENSFPSPKAIPNGFGTSPLTPSARISALNIVGDLLRKVGALESKLAACRNFAKDQASRKSYVPGSVNCGVMNSNGPECPRSGRATFFHKGAVNGFDPAPPPPGLGSSRPSSAPGMLPLSV
Consider B1, for which, in assay [1], the binding result was “binds”.

B2: Aftiphilin, mouse brain (protein, UniProt Q80WT5 1-931)
chain: MEPDIIRMYSSSPPPLDNGAEDDEEDEFGEFGGFSEVSPSGVGFVDFDTPDYTRPKEDFVPSNHFMPIHEYSEDVDSLTSFKSVQNGNDKDITAELSTPVKSQSDVVLSTTSKEMIPSKTLDPSIDGMESLEDLDKVVVQGPSTGQLRSFSPGDFRTDKNIVHQTKQLESCNGEKPPCLEILTNGFAGLETVNPQGTDDLDNVADSKGSKPLNTCGTECILESAASHATEFADFSTFSQTERTQLEEIECPVLNDGDTLTIQGNSKGPRVKELNCVKEVTLDGSFEDTGNTEREHQVCVSEIHAVADRGLSVEKQDLQTLQQDEFLNSRIQSEAWSLVDSSENSEAITKERCKMEKNDLFASKCADLSMDSVKTSDVNEIGSSKEENRKLTNPKSPDPDPTGQNALDDSAASMKNGDSGNGFVTCHDTNEDDFGDFGTANGTTPPFVTSTQDSMSDVTFEDSSEHFLHLSEPGDDFGEFEDTNAVSCQEEMRFTESDLRQTSDGLSEECPLAGESGGKDSKPDSKLKNGQDSEFGDFDSVPNTQGSAFQDSDDFADFSSAGPSQAVDWNAFEDEQKDGCSWAAFGDQQETESHHLKEVWQSQRTDETMGTLGTPKMHSVSSAASKGAVASGHLQEPGTSVQTALLNRLERIFEACFPSVFVPDVEEEVSSLKHLLETHSSPAKTREALADRGELRGVWTELQDIHDAHGLRYQWGGSHSNKKLLCSLGIDTRNILFTGNKKQPVIVPMYAAGLGMLEPTKEPLKPLSAAEKIASIGQTTVMTPEINTCTSDPFQESLPPVQFDWSSSGLTNPLDASGGSTLLNLDFFGPVDDSSSSSSTIPGVDPELYELTTAKLETSTSSLRVTDAFAKLMSTVEKTSTSTRKPKREEHLSEEAMKVIASLPDLTFMHAKVLMFPATLTPSMSSQEQADA
Turning to B2, the binding result in assay [2] and in assay [1] was “no binding” throughout.

B3: Dynlrb2, mouse brain (protein, UniProt Q9DAJ5 1-96)
chain: MTEVEETLKRIQSHKGVIGTMVVNAEGIPIRTTLDNSTTVQYAGLLHQLTMKAKSTVRDIDPQNDLTFLRIRSKKHEIMVAPDKEYLLIVIQNPCE
In the case of B3, the binding result in assay [1] is reported as “binds”.

B4: γ-synergin, mouse brain (protein, UniProt Q5SV85 1-1306)
chain: MALRPGAGASGAAGAGAGPGGAGSFMFPVAGGMRPPQAGLIPMQQQGFPMVSVMQPNMQGMMGMNYSSQMSQGPIAMQAGIPMGPMPAAGVPFLGQPPFLSMRPAGPQYTPDMQKQFAEEQQKRFEQQQKLLEEERKRRQFEEQKQKLRLLSSVKPKTGEKNRDDALEAIKGNLDGFSRDAKMHPTPASHPKKQGPSLEEKLLVSCDVSASGQEHIKLNTPDAGHKAIVPGSSKNCPGLMAHNRGAVDGCVSGPASAEAEKTSDQTLSKEESGVGVFPSQDPAQSRMPPWIYNESLVPDAYKKILETTMTPTGIDTAKLYPILMSSGLPRETLGQIWALANRTTPGRLTKEELYTVLAMVAVTQRGVPAMSPDALSQFPAAPIPTLSGFPMTLPTPVSQPTAMPSGPTGSMPLTLGQPIMGINLVGPVGGAAAPTSSGFMPAYPSNQVGKTEEDDFQDFQDASKSGSIDDSFTDFQEMPASSKTSNSQHGNSAPSLLIPFPGTKASTDKYAVFKGISTDKPSENPASFGESGDKYSAFRELEQTTDSKPLGESFAEFRSTGTDDGFTDFKTADSVSPLEPPTKDTFPSAFASGAAQQTQTQVKTPLNLEDLDMFSSVDCSGEKQVPFSATFSTAKSVSTRPQPAGSAAASAALASTKTSSLADDFGEFNLFGEYSNPASAGEQDDFADFMAFGNSSISSEPKASDKYEALREEVSPSPLSSSTVEGAQHPPAAATKYDVFKQLSLEGAGLAMEEFKENTSSTKSEDDFADFHSSKFSSTSSDKSLGEKAVAFRHAKEDSSSVKSLDLPSIGGSSVGKEDSEDALSVQFDMKLADVGGDLKHVMSDSSLDLPTVSGQHPPAADTEDLSCAAFGSCSSHFTVSTLTSCEWSDRADALQGRKLSPFVLSAGSRSFSATSNLHTKEISFGSSENITMSSLSKGSALASEDALPETAFPAFASFKDMMPQTTEQKEFESGDFQDFTRQDMPTVDRSQETSCPSPASSVASHETPKEGADDFGEFQSEKSKISKFDFLVANSQSKMKSSEEMIKSELATFDLSVQGSHKRSLSLGDKEISRSSPSPALEQPFRDRSNTLSERAALPVIRDKYKDLTGEVEENERYAYEWQRCLGSALDVIKKANDTLNGISSSAVCTEVIQSAQGMEYLLGVVEVYRVTKRVELGIKATAVCSEKLQQLLKDIDKVWNNLIGFMSLATLTPDENSLDFSSCMLRPGIKNAQELACGVCLLNVDSRSRKEETPAEEQPKKAFNSETDSFKLAYGGHQYHASCANFWINCVEPKPPGLLLPDLL
In the case of B4, the binding entry in assay [2] and in assay [1] was “no binding” each time.

B5: Wdr91, mouse brain (protein, UniProt Q7TMQ7 1-748)
chain: MAEAVERTDELVREYLLFRGFTHTLRQLDAEIKADKEKGFRVDKIVDQLQQLMQVYDLAALRDYWSYLERRLFSRLEDIYRPTINKLKTSLFRFYLVYTIQTNRNDKAQEFFAKQATELQNQAEWKDWFVLPFLPSPDTNPTFATYFSRQWADTFIISLHNFLSVLFQCMPVPVILNFDAECQRTNQVQEENEVLRQKLFALQAEIHRLKKEEQQQEEEAAALVQHKLPPYVSSMDRLGDSELALVCSQRPASLSQSPRVGFLSSLLPQSKKSPSRLSPAQGPPQAQSSAKKDSFSSQATKGKDSVPGAKDGKSLLSGPVPGEASWTHQRQRRLQDHGKERRELLSTSSSQSQCAERKPEVSGAEAEPCLELHMGPVEVLARVSTAGSEGDRPEQPFIVLSQEEYGEHHSSIMHCRVDCSGRRVASLDVDGVIKVWSFNPIMQTKASSISKSPLLSLEWATKRDRLLLLGSGVGTVRLYDTEAKKNLCEININDDMPRILSLACSPNGASFVCSAAAPSLTSQTDSSAPDIGSKGMNQVPGKLLLWDTKTMKQQLQFSLDPEPIAINCTAFNHNGNLLVTGAADGVIRLFDMQQHECAMSWKAHCGEVYSVEFSCDENAVYSIGEDRKFIQWNIHKSGLKVSESNLPSDATGPFVLSGYSGYKQVQVPRGRLFAFDSEGNYMLTCSATGGLIYKLGSEEKVLENCLSLGGHRAPVVTVDWSTAMDCGTCLTASMDGKIKLTTLLAHKL
B5: the binding result in assay [3] is listed as “no binding”; in assay [2], “binds”.

The values above are taken from article PMC10690479.
